Test results: patent US20120238503A1
No constants are given. Whether binding was seen depends on the method and setting. Some binding calls cover weakened binding; strength is not graded here. Where a sequence is shown, tags or fusion partners need not be part of it.

Protein sequences, listed by entry. Tags and fused reporters are not part of them. Residues count along the entry.
UniProt P49134, residues 21-799: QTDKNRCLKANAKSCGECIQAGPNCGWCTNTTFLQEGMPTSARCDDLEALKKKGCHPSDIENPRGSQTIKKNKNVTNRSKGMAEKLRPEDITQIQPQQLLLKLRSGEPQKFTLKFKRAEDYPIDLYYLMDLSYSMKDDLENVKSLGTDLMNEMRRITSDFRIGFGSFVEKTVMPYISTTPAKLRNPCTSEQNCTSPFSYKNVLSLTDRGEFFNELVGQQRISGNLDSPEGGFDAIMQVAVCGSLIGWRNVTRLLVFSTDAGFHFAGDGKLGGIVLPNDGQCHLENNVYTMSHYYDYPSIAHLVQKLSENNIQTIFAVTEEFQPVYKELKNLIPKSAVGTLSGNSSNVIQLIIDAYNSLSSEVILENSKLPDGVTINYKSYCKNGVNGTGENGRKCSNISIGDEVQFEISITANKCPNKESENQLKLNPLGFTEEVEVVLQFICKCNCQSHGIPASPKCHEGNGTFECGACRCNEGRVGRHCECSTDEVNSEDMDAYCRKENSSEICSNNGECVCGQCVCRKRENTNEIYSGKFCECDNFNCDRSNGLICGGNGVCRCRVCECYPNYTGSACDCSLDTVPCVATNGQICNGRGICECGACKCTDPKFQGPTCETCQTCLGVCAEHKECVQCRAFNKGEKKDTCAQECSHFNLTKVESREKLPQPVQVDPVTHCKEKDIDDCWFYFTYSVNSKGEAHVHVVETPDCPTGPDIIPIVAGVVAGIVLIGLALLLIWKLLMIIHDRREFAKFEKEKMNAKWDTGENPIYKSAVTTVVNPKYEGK

Target: integrin β1 of PC12 cells (rat (PC12 cells)) (UniProt P49134)
Assay: anti-His6 immunoprecipitation from PC12 cells on rLG3-coated dishes, Western blot (associated complex)

binding: binds
B1: recombinant human laminin α2 chain LG3 domain protein (His6-tagged rLG3) (ligand, not shown: small tags and cut ends)
chain: VELSPVPIDVGTEINLSFSTKNESGIILLGSGGTPAPPRRKRRQTGQAYYVILLNRGRLEVHLSTGARTMRKIVIRPEPNLFHDGREHSVHVERTRGIFTVQVDENRRYMQNLTVEQPIEVKKLFVGGAPPEFQPSPLRNIPPFEGCIWNLVINSVPMDFARPVSFKNADIGRCAHQKLREDEDGAAPAEIVIQPEPVPTPAFPTPTPV
